Results are given in words; binding and its absence hold for the method and conditions named. In cells and extracts the contact can be indirect. A yes stands for co-enrichment or nearness to the bait. Other partners may have been found.
B1: ZFP326 (protein, UniProt O88291 1-580)
chain: MDFEDDYVHSTCRGAYQDFNGMDRDYGPGSYGGLDRDYGHGSYGGQRSMDSYLNQSYGMDNHSGGGGGSRFGPYESYDSRSSLGGRDLYRSGYGFNEPEQTRFGGSYGGRFESSYRNSLDSFGGRNQGGSSWEAPYSRSKLRPGFMEDRGRENYSSYSSFSSPHMKPAPVGSRGRGTPAYPESTFGSRSYDAFGGPSTGRGRGRGHMGDFGSFHRPGIIVDYQNKPANVTIATARGIKRKMMQIFIKPGGAFIKKPKLAKPMDKMNLSKSPTKTDPKNEEEEKRRIEARREKQRRRREKNSEKYGDGYRMAFTCSFCKFRTFEEKDIELHLESSSHQETLDHIQKQTKFDKVVMEFLHECMVNKFKKASIRKQQTLNHPEAYKIIEKDIMEGVTADDHMMKVETVHCSACSVYIPALHSSVQLHLKSPDHSKGKQAYKEQIKRESVLTATSILNNPIVKARYERFVKGENPFEIQDHPQDQQIEGDEEDEEKIDEPIEEEEEEEEEEEEEGEEAGSVEEEGDVEGEEGTAEAAAAGEADAVGEAEGAGEAEEAEEEEEEEGTQEFAAQACATEQCEHRQM
B2: ZFP281 (protein, UniProt Q99LI5 1-893)
chain: MKIGSGFLSGGGGPSSSGGSGSGGSSGSASGGSGGGRRAEMEPTFPQSMVMFNHRLPPVTSFTRPAGTAAPPPQCVLSSSTSAAPAAEPPPPPAPDMTFKKEPAASAAAFPSQRTSWGFLQSLVSIKQEKPADPEEQPSHHHHHHHHYGGLFAGAEERSPGLGGGEGGSHGVIQDLSLLHQHAQQQPAQHHRDVLLSSGSRTDEHGNQEPKQDANVKKAKRPKPESQGIKAKRKPSASSKPLVGEGEGAVLSPSQKPHICDHCSAAFRSSYHLRRHVLIHTGERPFQCSQCSMGFIQKYLLQRHEKIHSREKPFGCDQCSMKFIQKYHMERHKRTHSGEKPYKCDTCQQYFSRTDRLLKHRRTCGEAIAKGAASAEPGSSNHNSMGNLAVLSQGNTSSSRRKSKSKSIAIENKEHKTGKTNESQMSNNINMQSYSVEMPTVSTSGSIIGTGIDELQKRVPKLIFKKGSRKNADKSYLNFVSPLPDVVGQKSLSGKPGGSLGIVSNNSVETISLLQSTSGKQGPISSNYDDAMQFSKKRRYLPTASSNSAFSINVGHMVSQQSVIQSAGVSVLDNEAPLSLIDSSALNAEIKSCHDKSGIPDEVLQSILDQYSGKSETQKEDPFNLTEPRVDLHTSGEHSELVQEENLSPGTQTPSNDKTSMLQEYSKYLQQAFEKSTNAGFTLGHGFQFVSLSSPLHNHTLFPEKQIYTTSPLECGFGQSVTSVLPSSLPKPPFGMLFGSQPGLYLSALDATHQQLTPSQELDDLIDSQKNLETSSAFQSSSQKLTSQKEQQKNLESSTSFQIPSQELASQIDPQKDIEPRTTYQIENFAQAFGSQFKSGSRVPMTFITNSNGEVDHRVRTSVSDFSGYTNMMSDVSEPCSTRVKTPTSQSYR

The chains behind the UniProt entries cited, without tags or fusion partners. Residues count along the entry.
UniProt Q9WTL8, residues 2-632: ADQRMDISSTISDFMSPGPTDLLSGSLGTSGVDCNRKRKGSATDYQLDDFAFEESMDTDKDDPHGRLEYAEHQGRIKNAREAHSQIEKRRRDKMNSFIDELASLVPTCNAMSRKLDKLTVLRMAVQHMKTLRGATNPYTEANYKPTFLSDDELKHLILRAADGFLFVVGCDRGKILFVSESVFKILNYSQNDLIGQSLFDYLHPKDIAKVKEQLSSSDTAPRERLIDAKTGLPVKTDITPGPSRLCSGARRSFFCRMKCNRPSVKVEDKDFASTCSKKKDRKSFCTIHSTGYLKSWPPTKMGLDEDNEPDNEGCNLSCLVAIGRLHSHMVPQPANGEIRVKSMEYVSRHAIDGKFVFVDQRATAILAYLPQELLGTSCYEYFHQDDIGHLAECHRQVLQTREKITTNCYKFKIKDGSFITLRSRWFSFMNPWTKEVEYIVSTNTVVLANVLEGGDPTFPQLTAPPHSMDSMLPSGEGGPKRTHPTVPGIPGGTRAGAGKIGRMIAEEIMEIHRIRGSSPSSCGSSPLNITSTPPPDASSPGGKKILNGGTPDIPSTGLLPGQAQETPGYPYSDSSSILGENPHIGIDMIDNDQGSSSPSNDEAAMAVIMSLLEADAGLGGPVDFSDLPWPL
UniProt Q6PR54: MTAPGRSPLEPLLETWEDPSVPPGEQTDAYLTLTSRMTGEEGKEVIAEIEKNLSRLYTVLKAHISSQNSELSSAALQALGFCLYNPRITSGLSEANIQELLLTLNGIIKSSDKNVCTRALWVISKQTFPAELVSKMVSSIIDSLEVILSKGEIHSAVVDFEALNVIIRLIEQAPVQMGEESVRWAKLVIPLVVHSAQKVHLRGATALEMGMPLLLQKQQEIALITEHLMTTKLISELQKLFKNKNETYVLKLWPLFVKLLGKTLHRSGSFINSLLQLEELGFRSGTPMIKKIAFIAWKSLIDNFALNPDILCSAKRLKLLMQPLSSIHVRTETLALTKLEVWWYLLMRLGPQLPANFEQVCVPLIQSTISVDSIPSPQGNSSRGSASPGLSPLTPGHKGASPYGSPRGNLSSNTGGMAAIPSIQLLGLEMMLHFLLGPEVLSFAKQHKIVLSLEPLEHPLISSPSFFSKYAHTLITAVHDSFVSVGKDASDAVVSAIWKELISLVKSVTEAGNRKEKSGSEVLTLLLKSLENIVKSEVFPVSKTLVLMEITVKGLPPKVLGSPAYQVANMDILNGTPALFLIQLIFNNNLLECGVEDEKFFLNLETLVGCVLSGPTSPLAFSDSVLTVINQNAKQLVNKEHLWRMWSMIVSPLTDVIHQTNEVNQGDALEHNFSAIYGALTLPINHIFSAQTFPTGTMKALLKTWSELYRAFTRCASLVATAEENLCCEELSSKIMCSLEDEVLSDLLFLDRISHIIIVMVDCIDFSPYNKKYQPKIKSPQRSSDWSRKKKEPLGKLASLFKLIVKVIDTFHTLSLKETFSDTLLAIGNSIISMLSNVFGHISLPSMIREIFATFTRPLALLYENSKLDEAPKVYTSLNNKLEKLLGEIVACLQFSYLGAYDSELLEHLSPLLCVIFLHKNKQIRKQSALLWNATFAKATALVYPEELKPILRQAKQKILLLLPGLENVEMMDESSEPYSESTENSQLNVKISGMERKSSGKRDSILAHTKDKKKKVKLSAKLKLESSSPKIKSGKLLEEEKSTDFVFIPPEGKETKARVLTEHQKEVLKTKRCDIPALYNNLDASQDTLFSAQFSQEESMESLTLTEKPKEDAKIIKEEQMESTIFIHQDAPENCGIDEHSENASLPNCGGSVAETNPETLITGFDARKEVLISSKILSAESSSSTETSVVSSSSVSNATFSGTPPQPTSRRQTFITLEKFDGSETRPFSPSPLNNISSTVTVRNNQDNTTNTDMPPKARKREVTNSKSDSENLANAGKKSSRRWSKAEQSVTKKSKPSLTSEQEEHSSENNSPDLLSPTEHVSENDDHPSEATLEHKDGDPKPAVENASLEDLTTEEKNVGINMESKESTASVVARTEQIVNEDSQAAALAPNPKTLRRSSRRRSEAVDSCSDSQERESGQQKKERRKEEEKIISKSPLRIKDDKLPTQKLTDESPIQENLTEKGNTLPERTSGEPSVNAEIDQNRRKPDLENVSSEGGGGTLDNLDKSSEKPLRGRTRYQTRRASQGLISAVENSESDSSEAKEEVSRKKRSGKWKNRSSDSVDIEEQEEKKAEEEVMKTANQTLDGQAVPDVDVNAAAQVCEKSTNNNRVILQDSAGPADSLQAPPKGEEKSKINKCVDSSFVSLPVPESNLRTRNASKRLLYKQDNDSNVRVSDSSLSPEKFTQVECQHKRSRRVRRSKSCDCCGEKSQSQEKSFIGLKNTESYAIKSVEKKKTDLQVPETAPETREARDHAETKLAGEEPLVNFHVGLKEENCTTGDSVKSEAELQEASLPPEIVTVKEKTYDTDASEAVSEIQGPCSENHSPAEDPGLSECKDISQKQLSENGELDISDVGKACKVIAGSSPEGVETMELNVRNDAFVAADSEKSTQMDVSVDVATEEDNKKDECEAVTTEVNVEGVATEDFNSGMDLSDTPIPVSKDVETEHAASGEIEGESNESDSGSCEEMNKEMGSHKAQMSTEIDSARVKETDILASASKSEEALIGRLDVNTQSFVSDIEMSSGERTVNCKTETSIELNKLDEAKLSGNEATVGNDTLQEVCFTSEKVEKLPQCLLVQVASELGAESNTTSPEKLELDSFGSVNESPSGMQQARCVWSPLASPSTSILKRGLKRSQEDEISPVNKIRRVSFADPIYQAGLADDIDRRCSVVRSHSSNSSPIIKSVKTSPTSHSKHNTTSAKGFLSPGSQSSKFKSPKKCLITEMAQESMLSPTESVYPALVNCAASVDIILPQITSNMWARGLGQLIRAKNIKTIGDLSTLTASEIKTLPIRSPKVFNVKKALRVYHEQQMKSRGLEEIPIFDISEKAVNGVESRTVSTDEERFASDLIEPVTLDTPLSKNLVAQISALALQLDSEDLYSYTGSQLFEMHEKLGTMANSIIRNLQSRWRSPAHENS
UniProt Q61464: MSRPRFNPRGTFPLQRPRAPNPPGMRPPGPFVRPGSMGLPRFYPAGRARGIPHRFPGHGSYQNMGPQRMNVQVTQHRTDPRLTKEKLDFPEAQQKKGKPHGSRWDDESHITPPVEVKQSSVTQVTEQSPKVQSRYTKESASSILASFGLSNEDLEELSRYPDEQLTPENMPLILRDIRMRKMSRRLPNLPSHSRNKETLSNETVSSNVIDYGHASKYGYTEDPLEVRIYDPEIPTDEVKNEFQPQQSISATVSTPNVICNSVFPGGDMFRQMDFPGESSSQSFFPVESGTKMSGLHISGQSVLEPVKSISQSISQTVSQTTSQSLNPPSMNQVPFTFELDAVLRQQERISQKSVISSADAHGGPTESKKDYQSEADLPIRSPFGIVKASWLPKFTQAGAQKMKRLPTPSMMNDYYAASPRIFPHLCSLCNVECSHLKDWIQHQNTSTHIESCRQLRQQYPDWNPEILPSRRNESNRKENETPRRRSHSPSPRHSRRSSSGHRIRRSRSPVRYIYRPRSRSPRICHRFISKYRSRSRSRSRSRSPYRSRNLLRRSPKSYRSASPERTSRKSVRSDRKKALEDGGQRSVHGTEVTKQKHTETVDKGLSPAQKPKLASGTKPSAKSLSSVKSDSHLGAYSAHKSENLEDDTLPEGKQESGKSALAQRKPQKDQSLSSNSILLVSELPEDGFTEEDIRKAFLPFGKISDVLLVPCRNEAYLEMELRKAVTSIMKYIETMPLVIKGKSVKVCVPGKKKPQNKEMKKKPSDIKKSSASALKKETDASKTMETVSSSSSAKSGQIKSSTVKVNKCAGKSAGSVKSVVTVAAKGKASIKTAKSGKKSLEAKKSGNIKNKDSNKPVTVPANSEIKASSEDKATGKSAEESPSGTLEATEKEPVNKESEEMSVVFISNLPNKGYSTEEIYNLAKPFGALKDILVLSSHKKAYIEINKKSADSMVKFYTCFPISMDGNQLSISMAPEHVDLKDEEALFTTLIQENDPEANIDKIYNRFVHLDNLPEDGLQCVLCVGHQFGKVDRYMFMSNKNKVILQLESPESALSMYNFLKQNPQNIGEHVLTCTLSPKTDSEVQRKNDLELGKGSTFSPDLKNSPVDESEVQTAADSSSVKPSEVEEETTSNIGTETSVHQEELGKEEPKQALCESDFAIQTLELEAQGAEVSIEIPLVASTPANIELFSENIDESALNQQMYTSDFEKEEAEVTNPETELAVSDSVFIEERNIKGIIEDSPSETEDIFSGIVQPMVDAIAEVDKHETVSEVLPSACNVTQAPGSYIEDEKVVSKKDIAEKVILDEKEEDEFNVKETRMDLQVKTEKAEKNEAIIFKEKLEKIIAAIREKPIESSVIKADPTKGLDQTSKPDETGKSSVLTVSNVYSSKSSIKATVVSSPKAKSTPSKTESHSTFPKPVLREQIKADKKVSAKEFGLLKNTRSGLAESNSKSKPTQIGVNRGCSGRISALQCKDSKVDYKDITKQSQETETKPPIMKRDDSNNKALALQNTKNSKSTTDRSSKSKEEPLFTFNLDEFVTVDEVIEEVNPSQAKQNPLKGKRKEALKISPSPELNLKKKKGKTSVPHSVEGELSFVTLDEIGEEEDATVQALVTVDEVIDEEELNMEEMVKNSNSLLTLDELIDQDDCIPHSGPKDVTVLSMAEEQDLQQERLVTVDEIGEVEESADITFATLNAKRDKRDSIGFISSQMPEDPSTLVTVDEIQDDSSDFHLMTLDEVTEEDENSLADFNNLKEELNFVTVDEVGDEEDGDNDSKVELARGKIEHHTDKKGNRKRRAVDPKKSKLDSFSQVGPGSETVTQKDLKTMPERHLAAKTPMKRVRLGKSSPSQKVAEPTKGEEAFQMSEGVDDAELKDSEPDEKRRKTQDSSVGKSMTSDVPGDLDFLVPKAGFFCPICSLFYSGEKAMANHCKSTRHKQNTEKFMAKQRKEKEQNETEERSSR

target: FLAG-BMAL1 (2XFLAG on the N-terminus of BMAL1 protein) (mouse) (UniProt Q9WTL8); experiment: affinity purification with mass spectrometry

Question: RIF1 (from UniProt Q6PR54 1-2419) was tested. Which binding did it give?
Answer: binds

Question: For ZFP638 (from UniProt Q61464 1-1960), which binding is on record?
Answer: binds

Question: Which binding does the source give for B1 here?
Answer: binds

Question: B2 was tested. Which binding did it give?
Answer: binds
